No constants are given. Whether binding was seen depends on the method and setting. In cells and extracts the contact can be indirect. For some assays here: Where a sequence is shown, tags or fusion partners need not be part of it.
T1: histone deacetylase 6 (HDAC6), endogenous in mouse brain (mouse (endogenous in brain tissue)) (UniProt Q9Z2V5)
T1 sequence: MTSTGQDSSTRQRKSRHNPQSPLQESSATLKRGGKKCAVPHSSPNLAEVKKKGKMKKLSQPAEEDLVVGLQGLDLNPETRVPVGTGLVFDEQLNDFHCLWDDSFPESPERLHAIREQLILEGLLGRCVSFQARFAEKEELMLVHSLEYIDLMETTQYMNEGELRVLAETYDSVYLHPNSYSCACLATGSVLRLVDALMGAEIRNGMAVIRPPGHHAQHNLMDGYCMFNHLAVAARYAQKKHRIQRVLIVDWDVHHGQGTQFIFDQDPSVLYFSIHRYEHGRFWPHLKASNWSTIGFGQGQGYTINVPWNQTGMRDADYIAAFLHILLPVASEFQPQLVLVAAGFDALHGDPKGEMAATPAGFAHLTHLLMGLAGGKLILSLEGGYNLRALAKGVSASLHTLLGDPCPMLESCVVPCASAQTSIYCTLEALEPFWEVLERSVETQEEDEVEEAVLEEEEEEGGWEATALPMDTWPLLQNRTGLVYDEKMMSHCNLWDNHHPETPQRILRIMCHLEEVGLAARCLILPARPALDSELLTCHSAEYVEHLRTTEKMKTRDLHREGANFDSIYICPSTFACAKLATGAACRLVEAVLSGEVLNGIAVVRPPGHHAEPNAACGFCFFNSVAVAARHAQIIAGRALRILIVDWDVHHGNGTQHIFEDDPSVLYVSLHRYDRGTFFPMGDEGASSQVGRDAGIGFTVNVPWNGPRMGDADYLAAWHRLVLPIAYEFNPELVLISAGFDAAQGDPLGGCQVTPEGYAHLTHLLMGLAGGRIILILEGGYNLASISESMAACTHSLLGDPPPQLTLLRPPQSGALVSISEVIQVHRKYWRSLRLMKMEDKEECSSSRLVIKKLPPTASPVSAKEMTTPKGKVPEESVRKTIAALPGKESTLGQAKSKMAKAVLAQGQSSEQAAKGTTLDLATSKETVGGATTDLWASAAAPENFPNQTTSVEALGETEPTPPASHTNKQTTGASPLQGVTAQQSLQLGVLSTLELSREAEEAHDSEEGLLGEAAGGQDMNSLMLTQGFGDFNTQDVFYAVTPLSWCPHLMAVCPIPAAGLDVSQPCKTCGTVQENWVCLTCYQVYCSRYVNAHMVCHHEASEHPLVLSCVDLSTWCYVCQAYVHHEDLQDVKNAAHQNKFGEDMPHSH

Sequences of proteins named here, by UniProt entry; tags and fusion partners are left off.
UniProt Q9UBN7: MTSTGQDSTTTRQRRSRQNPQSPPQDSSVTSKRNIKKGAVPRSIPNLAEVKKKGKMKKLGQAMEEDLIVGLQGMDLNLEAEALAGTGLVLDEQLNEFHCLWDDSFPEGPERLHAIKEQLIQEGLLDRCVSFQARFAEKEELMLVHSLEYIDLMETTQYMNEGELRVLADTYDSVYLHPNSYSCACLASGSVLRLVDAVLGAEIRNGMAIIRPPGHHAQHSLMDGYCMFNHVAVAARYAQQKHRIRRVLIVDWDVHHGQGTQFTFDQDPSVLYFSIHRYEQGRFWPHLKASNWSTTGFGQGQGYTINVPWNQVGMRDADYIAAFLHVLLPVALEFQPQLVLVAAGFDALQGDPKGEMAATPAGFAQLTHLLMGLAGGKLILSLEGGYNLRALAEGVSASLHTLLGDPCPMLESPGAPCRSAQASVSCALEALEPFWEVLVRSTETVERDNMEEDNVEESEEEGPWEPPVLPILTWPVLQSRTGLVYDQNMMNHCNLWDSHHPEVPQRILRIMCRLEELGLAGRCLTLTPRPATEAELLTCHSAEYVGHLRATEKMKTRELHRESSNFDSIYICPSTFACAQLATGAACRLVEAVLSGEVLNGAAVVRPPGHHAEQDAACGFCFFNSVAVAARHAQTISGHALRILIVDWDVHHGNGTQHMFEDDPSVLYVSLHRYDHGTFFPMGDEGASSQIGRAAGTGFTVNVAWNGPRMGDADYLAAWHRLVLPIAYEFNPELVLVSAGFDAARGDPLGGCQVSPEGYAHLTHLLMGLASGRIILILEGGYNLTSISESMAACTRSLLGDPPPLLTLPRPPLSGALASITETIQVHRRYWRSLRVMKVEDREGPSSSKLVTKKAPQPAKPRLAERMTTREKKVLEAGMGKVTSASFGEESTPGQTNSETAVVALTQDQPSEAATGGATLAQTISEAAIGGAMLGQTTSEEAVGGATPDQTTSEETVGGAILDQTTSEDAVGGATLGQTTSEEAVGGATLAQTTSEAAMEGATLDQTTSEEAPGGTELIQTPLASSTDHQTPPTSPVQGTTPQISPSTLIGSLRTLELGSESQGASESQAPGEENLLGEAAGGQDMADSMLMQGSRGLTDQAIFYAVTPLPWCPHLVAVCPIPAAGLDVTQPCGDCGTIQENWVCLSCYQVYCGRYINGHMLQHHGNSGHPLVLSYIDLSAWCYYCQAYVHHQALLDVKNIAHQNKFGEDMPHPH


Columns and labels:
[1] = molecular target: T1, histone deacetylase 6 (HDAC6), endogenous in mouse brain (mouse (endogenous in brain tissue)); test: co-IP; mouse brain tissue lysates of Gars^+/+ and Gars^P234KY/+ littermates (postnatal day 7); antibody on protein G-sepharose, 3 h or overnight at 4 °C, washed four times with cold PBS pH 7.4; western blot
[2] = molecular target: histone deacetylase 6 (HDAC6), endogenous in human PBMCs (human (endogenous in PBMCs)) (UniProt Q9UBN7); test: co-IP; PBMC lysates of a CMT patient (GlyRS S581L) and a healthy donor, equal total protein; anti-HDAC6 on protein G-sepharose, overnight at 4 °C, washed four times with cold PBS pH 7.4; western blot

binding [1] | binding [2] | Binder
no binding |  | glycyl-tRNA synthetase (GlyRS), wild type, of Gars^+/+ mice (protein, UniProt Q9CZD3 34-729) LSAPAQPAASRSSMDSAEELLAPLRLAVRQQGDFVRKLKEDKAPQVDVDRAVAELKARKRVLEAKELALQPKDDIVDRAKMEDTLKRRFFYDQAFAIYGGVSGLYDFGPVGCALKNNIIQAWRQHFIQEEQILEIDCTMLTPEPVLKTSGHVDKFADFMVKDVKNGECFRADHLLKAHLQKLMSDKKCSAEKKSEMESVLAQLDNYGQQELADLFVNYNVKSPTTGNDLSPPVPFNLMFQTFIGPGGNMPGYLRPETAQGIFLNFKRLLEFNQGKLPFAAAQIGNSFRNEISPRSGLIRVREFTMAEIEHFVDPTEKDHPKFQSVADLCLYLYSAKAQVTGQSARKMRLGDAVEQGVINNSVLGYFIGRIYLYLTKVGISPDKLRFRQHMENEMAHYACDCWDAESKTSYGWIEIVGCADRSCYDLSCHARATKVPLVAEKPLKEPKTVNVVQFEPNKGAVGKAYKKDAKLVLEYLSACDECYISEMELLLSEKGEFTIETEGKTFQLTKDMVSVKRFQKTLHVEEVVPSVIEPSFGLGRIMYTILEHTFHVREGDEQRTFFSFPAVVAPFKCSVLPLSQNQEFMPFVKELSEALTRNGVSHKVDDSSGSIGRRYARTDEIGVAFGITIDFDTVNKTPHTATLRDRDSMRQIRAEVSELPNVVRDLANGNITWADVEARYPLFEGQETGKKETVEE
 | no binding | GlyRS, endogenous in PBMCs of a healthy donor (protein, UniProt P41250 37-739) SAASCPPISLPAAASRSSMDGAGAEEVLAPLRLAVRQQGDLVRKLKEDKAPQVDVDKAVAELKARKRVLEAKELALQPKDDIVDRAKMEDTLKRRFFYDQAFAIYGGVSGLYDFGPVGCALKNNIIQTWRQHFIQEEQILEIDCTMLTPEPVLKTSGHVDKFADFMVKDVKNGECFRADHLLKAHLQKLMSDKKCSVEKKSEMESVLAQLDNYGQQELADLFVNYNVKSPITGNDLSPPVSFNLMFKTFIGPGGNMPGYLRPETAQGIFLNFKRLLEFNQGKLPFAAAQIGNSFRNEISPRSGLIRVREFTMAEIEHFVDPSEKDHPKFQNVADLHLYLYSAKAQVSGQSARKMRLGDAVEQGVINNTVLGYFIGRIYLYLTKVGISPDKLRFRQHMENEMAHYACDCWDAESKTSYGWIEIVGCADRSCYDLSCHARATKVPLVAEKPLKEPKTVNVVQFEPSKGAIGKAYKKDAKLVMEYLAICDECYITEMEMLLNEKGEFTIETEGKTFQLTKDMINVKRFQKTLYVEEVVPNVIEPSFGLGRIMYTVFEHTFHVREGDEQRTFFSFPAVVAPFKCSVLPLSQNQEFMPFVKELSEALTRHGVSHKVDDSSGSIGRRYARTDEIGVAFGVTIDFDTVNKTPHTATLRDRDSMRQIRAEISELPSIVQDLANGNITWADVEARYPLFEGQETGKKETIEE

— paper PMC5843656
